No constants are given. Whether binding was seen depends on the method and setting. Some entries that bind do so weakly or less than the wild type. For some assays here: Where a sequence is shown, tags or fusion partners need not be part of it.
T1: Nqo5 subunit of Paracoccus denitrificans complex I with a His6 tag (strain Pd-Nqo5^His6) (Paracoccus denitrificans) (UniProt P29917)
T1 sequence: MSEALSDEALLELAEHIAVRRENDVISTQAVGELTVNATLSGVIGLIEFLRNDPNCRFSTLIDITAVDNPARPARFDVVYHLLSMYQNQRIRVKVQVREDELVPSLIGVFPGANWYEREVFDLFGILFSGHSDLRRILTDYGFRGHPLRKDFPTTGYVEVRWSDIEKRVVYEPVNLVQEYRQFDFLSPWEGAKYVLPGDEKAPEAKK

T2: Nqo12 subunit of Paracoccus denitrificans complex I, wild type (Paracoccus denitrificans) (UniProt P29924)
T2 sequence: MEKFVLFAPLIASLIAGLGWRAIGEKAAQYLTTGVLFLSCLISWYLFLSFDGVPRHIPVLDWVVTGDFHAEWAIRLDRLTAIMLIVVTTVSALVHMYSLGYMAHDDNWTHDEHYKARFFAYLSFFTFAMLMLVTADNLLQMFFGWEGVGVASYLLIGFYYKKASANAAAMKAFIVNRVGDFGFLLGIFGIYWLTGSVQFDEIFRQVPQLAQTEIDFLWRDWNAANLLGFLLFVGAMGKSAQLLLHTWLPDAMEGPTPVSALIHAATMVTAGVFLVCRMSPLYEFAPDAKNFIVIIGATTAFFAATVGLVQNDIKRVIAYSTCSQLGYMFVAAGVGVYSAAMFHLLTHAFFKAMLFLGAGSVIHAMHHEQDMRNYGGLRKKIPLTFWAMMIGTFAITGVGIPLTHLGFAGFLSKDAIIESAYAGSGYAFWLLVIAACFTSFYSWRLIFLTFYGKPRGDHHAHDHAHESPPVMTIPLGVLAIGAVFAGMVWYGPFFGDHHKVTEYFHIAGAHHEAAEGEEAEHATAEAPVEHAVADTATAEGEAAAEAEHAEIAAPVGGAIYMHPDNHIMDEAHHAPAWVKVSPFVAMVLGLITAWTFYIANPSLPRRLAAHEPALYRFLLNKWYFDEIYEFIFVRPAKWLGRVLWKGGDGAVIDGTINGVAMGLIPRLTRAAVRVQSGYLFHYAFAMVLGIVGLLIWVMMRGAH


Legend:
[1] = molecular target: T1, Nqo5 subunit of Paracoccus denitrificans complex I with a His6 tag (strain Pd-Nqo5^His6) (Paracoccus denitrificans); test: co-purification of the complex (purified by its tag, SEC, SDS-PAGE); complex I purified from membranes of the P. denitrificans Pd-Nqo5^His6 strain as in ref. 24; size-exclusion elution profile compared with wild type; 10 ug of purified complex on SDS-PAGE, Coomassie R250
[2] = molecular target: T2, Nqo12 subunit of Paracoccus denitrificans complex I, wild type (Paracoccus denitrificans); test: as above

| Binder | binding [1] | binding [2] |
| --- | --- | --- |
| Nqo13 H239Q (protein, UniProt P29925 1-513) MTNLLSIITFLPIVAAIIMALFLRGQDEAAARNAKWLALLTTTATFVISLFVLFRFDPANTGFQFVEDHAWIMGVCYKMGVDGISVLFVLLTTFMMPLTILSTWQVQDKVKEYMIAFLVLEGLMIGVFTALDLVLFYLFFEAGLIPMFLIIGIWGGKDRIYASFKFFLYTFLGSVLMLVAMIAMYRMAGTTDIPTLLTFDFPSENFRLLGMTVVGGMQMLLFLAFFASFAVKMPMWPVQTWLPDAHVQAPTAGSVLLAAVLLKMGGYGFLRFSLPMFPVASGVAQPYVFWLSAIAIVYTSLVALAQSDMKKVIAYSSVAHMGYVTMGVFAANQIGVDGAIFQMLSHGFISGALFLCVGVIYDRMHTREIDAYGGLVNRMPAYAAVFMFFTMANVGLPGTSGFVGEFLTLMGVFRVDTWVALVATSGVILSAAYALWLYRRVTLGQLIKESLKSITDMTPRERWVFIPLIAMTLILGVYPRLVTDVTGPAVAALVQDYNQSQPAAPVATAQASH | binds | binds |
| Nqo13 Y315F (protein, UniProt P29925 1-513) MTNLLSIITFLPIVAAIIMALFLRGQDEAAARNAKWLALLTTTATFVISLFVLFRFDPANTGFQFVEDHAWIMGVCYKMGVDGISVLFVLLTTFMMPLTILSTWQVQDKVKEYMIAFLVLEGLMIGVFTALDLVLFYLFFEAGLIPMFLIIGIWGGKDRIYASFKFFLYTFLGSVLMLVAMIAMYRMAGTTDIPTLLTFDFPSENFRLLGMTVVGGMQMLLFLAFFASFAVKMPMWPVHTWLPDAHVQAPTAGSVLLAAVLLKMGGYGFLRFSLPMFPVASGVAQPYVFWLSAIAIVYTSLVALAQSDMKKVIAFSSVAHMGYVTMGVFAANQIGVDGAIFQMLSHGFISGALFLCVGVIYDRMHTREIDAYGGLVNRMPAYAAVFMFFTMANVGLPGTSGFVGEFLTLMGVFRVDTWVALVATSGVILSAAYALWLYRRVTLGQLIKESLKSITDMTPRERWVFIPLIAMTLILGVYPRLVTDVTGPAVAALVQDYNQSQPAAPVATAQASH | binds | binds |
| Nqo13 W241F (protein, UniProt P29925 1-513) MTNLLSIITFLPIVAAIIMALFLRGQDEAAARNAKWLALLTTTATFVISLFVLFRFDPANTGFQFVEDHAWIMGVCYKMGVDGISVLFVLLTTFMMPLTILSTWQVQDKVKEYMIAFLVLEGLMIGVFTALDLVLFYLFFEAGLIPMFLIIGIWGGKDRIYASFKFFLYTFLGSVLMLVAMIAMYRMAGTTDIPTLLTFDFPSENFRLLGMTVVGGMQMLLFLAFFASFAVKMPMWPVHTFLPDAHVQAPTAGSVLLAAVLLKMGGYGFLRFSLPMFPVASGVAQPYVFWLSAIAIVYTSLVALAQSDMKKVIAYSSVAHMGYVTMGVFAANQIGVDGAIFQMLSHGFISGALFLCVGVIYDRMHTREIDAYGGLVNRMPAYAAVFMFFTMANVGLPGTSGFVGEFLTLMGVFRVDTWVALVATSGVILSAAYALWLYRRVTLGQLIKESLKSITDMTPRERWVFIPLIAMTLILGVYPRLVTDVTGPAVAALVQDYNQSQPAAPVATAQASH | binds | binds |
| Nqo13 L242A (protein, UniProt P29925 1-513) MTNLLSIITFLPIVAAIIMALFLRGQDEAAARNAKWLALLTTTATFVISLFVLFRFDPANTGFQFVEDHAWIMGVCYKMGVDGISVLFVLLTTFMMPLTILSTWQVQDKVKEYMIAFLVLEGLMIGVFTALDLVLFYLFFEAGLIPMFLIIGIWGGKDRIYASFKFFLYTFLGSVLMLVAMIAMYRMAGTTDIPTLLTFDFPSENFRLLGMTVVGGMQMLLFLAFFASFAVKMPMWPVHTWAPDAHVQAPTAGSVLLAAVLLKMGGYGFLRFSLPMFPVASGVAQPYVFWLSAIAIVYTSLVALAQSDMKKVIAYSSVAHMGYVTMGVFAANQIGVDGAIFQMLSHGFISGALFLCVGVIYDRMHTREIDAYGGLVNRMPAYAAVFMFFTMANVGLPGTSGFVGEFLTLMGVFRVDTWVALVATSGVILSAAYALWLYRRVTLGQLIKESLKSITDMTPRERWVFIPLIAMTLILGVYPRLVTDVTGPAVAALVQDYNQSQPAAPVATAQASH | binds | binds |
| Nqo13 A314L (protein, UniProt P29925 1-513) MTNLLSIITFLPIVAAIIMALFLRGQDEAAARNAKWLALLTTTATFVISLFVLFRFDPANTGFQFVEDHAWIMGVCYKMGVDGISVLFVLLTTFMMPLTILSTWQVQDKVKEYMIAFLVLEGLMIGVFTALDLVLFYLFFEAGLIPMFLIIGIWGGKDRIYASFKFFLYTFLGSVLMLVAMIAMYRMAGTTDIPTLLTFDFPSENFRLLGMTVVGGMQMLLFLAFFASFAVKMPMWPVHTWLPDAHVQAPTAGSVLLAAVLLKMGGYGFLRFSLPMFPVASGVAQPYVFWLSAIAIVYTSLVALAQSDMKKVILYSSVAHMGYVTMGVFAANQIGVDGAIFQMLSHGFISGALFLCVGVIYDRMHTREIDAYGGLVNRMPAYAAVFMFFTMANVGLPGTSGFVGEFLTLMGVFRVDTWVALVATSGVILSAAYALWLYRRVTLGQLIKESLKSITDMTPRERWVFIPLIAMTLILGVYPRLVTDVTGPAVAALVQDYNQSQPAAPVATAQASH | binds | binds |
| Nqo13 H246F (protein, UniProt P29925 1-513) MTNLLSIITFLPIVAAIIMALFLRGQDEAAARNAKWLALLTTTATFVISLFVLFRFDPANTGFQFVEDHAWIMGVCYKMGVDGISVLFVLLTTFMMPLTILSTWQVQDKVKEYMIAFLVLEGLMIGVFTALDLVLFYLFFEAGLIPMFLIIGIWGGKDRIYASFKFFLYTFLGSVLMLVAMIAMYRMAGTTDIPTLLTFDFPSENFRLLGMTVVGGMQMLLFLAFFASFAVKMPMWPVHTWLPDAFVQAPTAGSVLLAAVLLKMGGYGFLRFSLPMFPVASGVAQPYVFWLSAIAIVYTSLVALAQSDMKKVIAYSSVAHMGYVTMGVFAANQIGVDGAIFQMLSHGFISGALFLCVGVIYDRMHTREIDAYGGLVNRMPAYAAVFMFFTMANVGLPGTSGFVGEFLTLMGVFRVDTWVALVATSGVILSAAYALWLYRRVTLGQLIKESLKSITDMTPRERWVFIPLIAMTLILGVYPRLVTDVTGPAVAALVQDYNQSQPAAPVATAQASH | binds | binds |
| Nqo12 D648N (protein, UniProt P29924 1-703) MEKFVLFAPLIASLIAGLGWRAIGEKAAQYLTTGVLFLSCLISWYLFLSFDGVPRHIPVLDWVVTGDFHAEWAIRLDRLTAIMLIVVTTVSALVHMYSLGYMAHDDNWTHDEHYKARFFAYLSFFTFAMLMLVTADNLLQMFFGWEGVGVASYLLIGFYYKKASANAAAMKAFIVNRVGDFGFLLGIFGIYWLTGSVQFDEIFRQVPQLAQTEIDFLWRDWNAANLLGFLLFVGAMGKSAQLLLHTWLPDAMEGPTPVSALIHAATMVTAGVFLVCRMSPLYEFAPDAKNFIVIIGATTAFFAATVGLVQNDIKRVIAYSTCSQLGYMFVAAGVGVYSAAMFHLLTHAFFKAMLFLGAGSVIHAMHHEQDMRNYGGLRKKIPLTFWAMMIGTFAITGVGIPLTHLGFAGFLSKDAIIESAYAGSGYAFWLLVIAACFTSFYSWRLIFLTFYGKPRGDHHAHDHAHESPPVMTIPLGVLAIGAVFAGMVWYGPFFGDHHKVTEYFHIAGAHHEAAEGEEAEHATAEAPVEHAVADTATAEGEAAAEAEHAEIAAPVGGAIYMHPDNHIMDEAHHAPAWVKVSPFVAMVLGLITAWTFYIANPSLPRRLAAHEPALYRFLLNKWYFDEIYEFIFVRPAKWLGRVLWKGGNGAVIDGTINGVAMGLIPRLTRAAVRVQSGYLFHYAFAMVLGIVGLLIWVMMRGAH | binds | – |
| Nqo12 subunit of Paracoccus denitrificans complex I, wild type (protein, UniProt P29924 1-703) MEKFVLFAPLIASLIAGLGWRAIGEKAAQYLTTGVLFLSCLISWYLFLSFDGVPRHIPVLDWVVTGDFHAEWAIRLDRLTAIMLIVVTTVSALVHMYSLGYMAHDDNWTHDEHYKARFFAYLSFFTFAMLMLVTADNLLQMFFGWEGVGVASYLLIGFYYKKASANAAAMKAFIVNRVGDFGFLLGIFGIYWLTGSVQFDEIFRQVPQLAQTEIDFLWRDWNAANLLGFLLFVGAMGKSAQLLLHTWLPDAMEGPTPVSALIHAATMVTAGVFLVCRMSPLYEFAPDAKNFIVIIGATTAFFAATVGLVQNDIKRVIAYSTCSQLGYMFVAAGVGVYSAAMFHLLTHAFFKAMLFLGAGSVIHAMHHEQDMRNYGGLRKKIPLTFWAMMIGTFAITGVGIPLTHLGFAGFLSKDAIIESAYAGSGYAFWLLVIAACFTSFYSWRLIFLTFYGKPRGDHHAHDHAHESPPVMTIPLGVLAIGAVFAGMVWYGPFFGDHHKVTEYFHIAGAHHEAAEGEEAEHATAEAPVEHAVADTATAEGEAAAEAEHAEIAAPVGGAIYMHPDNHIMDEAHHAPAWVKVSPFVAMVLGLITAWTFYIANPSLPRRLAAHEPALYRFLLNKWYFDEIYEFIFVRPAKWLGRVLWKGGDGAVIDGTINGVAMGLIPRLTRAAVRVQSGYLFHYAFAMVLGIVGLLIWVMMRGAH | binds | – |

From PMC9802314
